Data as given in article PMC9481523.
Read-outs that look alike come from different tables or passages of the source. Results are given in words; binding and its absence hold for the method and conditions named. In cells and extracts the contact can be indirect. Some results given as binding are weak or reduced against the parent protein; the word gives no strength.

Amino acid sequences for entries named in this document (tags omitted).
UniProt P22314: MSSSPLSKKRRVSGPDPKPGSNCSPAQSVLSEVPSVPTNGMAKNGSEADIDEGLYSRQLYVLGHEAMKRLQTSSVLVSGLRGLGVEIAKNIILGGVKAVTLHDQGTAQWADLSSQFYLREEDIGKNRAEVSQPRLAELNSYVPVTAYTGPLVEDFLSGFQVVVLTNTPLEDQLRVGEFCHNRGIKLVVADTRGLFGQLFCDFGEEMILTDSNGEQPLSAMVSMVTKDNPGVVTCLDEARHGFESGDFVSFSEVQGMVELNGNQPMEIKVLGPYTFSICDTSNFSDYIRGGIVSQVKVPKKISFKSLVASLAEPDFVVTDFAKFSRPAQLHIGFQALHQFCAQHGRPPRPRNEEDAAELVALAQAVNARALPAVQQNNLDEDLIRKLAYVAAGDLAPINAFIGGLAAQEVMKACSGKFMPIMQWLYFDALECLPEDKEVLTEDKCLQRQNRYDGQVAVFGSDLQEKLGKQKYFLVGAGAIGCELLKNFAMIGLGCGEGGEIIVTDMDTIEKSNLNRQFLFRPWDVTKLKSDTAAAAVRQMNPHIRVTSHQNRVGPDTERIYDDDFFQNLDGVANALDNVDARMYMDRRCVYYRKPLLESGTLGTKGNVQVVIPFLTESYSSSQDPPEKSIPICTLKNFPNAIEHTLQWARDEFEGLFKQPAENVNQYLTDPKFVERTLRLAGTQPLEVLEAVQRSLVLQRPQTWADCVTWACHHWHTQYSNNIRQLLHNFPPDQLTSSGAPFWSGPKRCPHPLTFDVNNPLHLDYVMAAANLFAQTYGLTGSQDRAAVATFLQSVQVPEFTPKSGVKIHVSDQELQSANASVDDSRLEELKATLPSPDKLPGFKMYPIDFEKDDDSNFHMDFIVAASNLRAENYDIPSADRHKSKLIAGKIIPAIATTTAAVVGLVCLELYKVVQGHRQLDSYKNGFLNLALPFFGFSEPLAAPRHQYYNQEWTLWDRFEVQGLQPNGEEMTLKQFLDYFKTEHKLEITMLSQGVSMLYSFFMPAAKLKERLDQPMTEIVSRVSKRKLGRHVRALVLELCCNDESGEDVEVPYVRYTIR
UniProt P26447: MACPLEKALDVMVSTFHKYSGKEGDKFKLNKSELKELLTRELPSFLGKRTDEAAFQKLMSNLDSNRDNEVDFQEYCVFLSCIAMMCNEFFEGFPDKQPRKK
UniProt P60903: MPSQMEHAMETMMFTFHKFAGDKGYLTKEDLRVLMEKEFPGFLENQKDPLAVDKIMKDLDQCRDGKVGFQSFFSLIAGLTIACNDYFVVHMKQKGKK

T1: S100A14 (human (endogenous in SCC15)) (UniProt Q9HCY8)
T1 sequence: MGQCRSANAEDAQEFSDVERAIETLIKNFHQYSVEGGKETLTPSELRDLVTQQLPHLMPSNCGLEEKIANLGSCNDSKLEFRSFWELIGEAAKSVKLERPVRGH

T2: Caveolin-2 (CAV2) (human (endogenous in SCC15)) (UniProt P51636)
T2 sequence: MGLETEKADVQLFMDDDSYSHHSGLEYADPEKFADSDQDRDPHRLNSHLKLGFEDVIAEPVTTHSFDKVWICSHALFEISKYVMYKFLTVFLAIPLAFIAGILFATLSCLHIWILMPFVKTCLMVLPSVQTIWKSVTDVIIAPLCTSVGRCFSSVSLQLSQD

B1: S100A7 (protein, UniProt P31151 1-101)
chain: MSNTQAERSIIGMIDMFHKYTRRDDKIEKPSLLTMMKENFPNFLSACDKKGTNYLADVFEKKDKNEDKKIDFSEFLSLLGDIATDYHKQSHGAAPCSGGSQ
B2: S100A14 (protein, UniProt Q9HCY8 1-104)
chain: T1 sequence

Legend:
Assay in all cases: co-IP; endogenous proteins in SCC15 cell lysates (wild-type or control cells), reciprocal IPs with antibodies to each partner, IP/Co-IP Kit (Proteintech), western blot; UBE1 with S100A14 also in shCAV2 SCC15 cells
[1] = target: T1, S100A14 (human (endogenous in SCC15))
[2] = target: T2, Caveolin-2 (CAV2) (human (endogenous in SCC15))
[3] = target: T2, Caveolin-2 (CAV2) (human (endogenous in SCC15)); remark: listed apart in the source

| Molecule | binding [2] | binding [3] | other results |
| --- | --- | --- | --- |
| E1 ubiquitin-activating enzyme UBE1 (from UniProt P22314 1-1058) |  |  | binding [1]: binds |
| S100A4 (from UniProt P26447 1-101) | binds |  |  |
| S100A10 (from UniProt P60903 1-97) | binds |  |  |
| B1 |  | binds |  |
| B2 |  | binds |  |
